Test results published in US6521627B1, “5-Iodo-4-phenethylaminopyrimidine derivative, intermediate thereof, processes for producing the same and agricultural and horticultural pesticides” (UBE Industries, Ltd., priority 1998, dated 2003).
Some entries share one result that the patent states for a list of compounds.

Experiments:
two-spotted spider mite = test: Test of effect on two-spotted spider mite; type: in vivo; conditions: wettable powder diluted to 300 ppm; kidney bean leaves with eggs dipped for 10 seconds; 25° C., after 3 days
wheat brown rust = test: Test of effect on wheat brown rust (Prevention effect); type: in vivo, wheat brown rust on wheat (variety: Kobushi Komugi); conditions: wettable powder diluted to 500 ppm, 20 ml sprayed per flowerpot; inoculated 2 days after spraying; examined one week after inoculation

| SMILES | acaricidal effect (acaricidal rate) (two-spotted spider mite) [%] | area of lesion of wheat brown rust on the first leaves (wheat brown rust) [%] |
| --- | --- | --- |
| CC(F)c1ncnc(NCCc2ccccc2)c1I (stereo not shown) [Compound 1-(1), 6-(1-fluoroethyl)-5-iodo-4-(2-phenylethylamino)pyrimidine] | ≥ 80 | ≤ 20 |
| CC(Cl)c1ncnc(NCCc2ccc(OC(F)(F)F)cc2)c1I (stereo not shown) [1-(20), 6-(1-chloroethyl)-5-iodo-4-[2-(4-trifluoromethoxyphenyl)ethylamino]pyrimidine] | – | ≤ 20 |
| CC(F)c1ncnc(NCCc2ccc(F)cc2)c1I (stereo not shown) [Compound 1-(5), 6-(1-fluoroethyl)-5-iodo-4-[2-(4-fluorophenyl)ethylamino]pyrimidine] | ≥ 80 | ≤ 20 |
| CC(F)c1ncnc(NCCc2ccc(OC(F)(F)F)cc2)c1I (stereo not shown) [1-(23), 6-(1-fluoroethyl)-5-iodo-4-[2-(4-trifluoromethoxyphenyl)ethylamino]pyrimidine] | ≥ 80 | ≤ 20 |
